Data taken from ChEMBL document CHEMBL3988442, “University of Dundee, Small-Polar-MMV Screening Library” (2021).

Amino acid sequences for entries named in this document (tags omitted).
UniProt E9BF75, entry or part of it: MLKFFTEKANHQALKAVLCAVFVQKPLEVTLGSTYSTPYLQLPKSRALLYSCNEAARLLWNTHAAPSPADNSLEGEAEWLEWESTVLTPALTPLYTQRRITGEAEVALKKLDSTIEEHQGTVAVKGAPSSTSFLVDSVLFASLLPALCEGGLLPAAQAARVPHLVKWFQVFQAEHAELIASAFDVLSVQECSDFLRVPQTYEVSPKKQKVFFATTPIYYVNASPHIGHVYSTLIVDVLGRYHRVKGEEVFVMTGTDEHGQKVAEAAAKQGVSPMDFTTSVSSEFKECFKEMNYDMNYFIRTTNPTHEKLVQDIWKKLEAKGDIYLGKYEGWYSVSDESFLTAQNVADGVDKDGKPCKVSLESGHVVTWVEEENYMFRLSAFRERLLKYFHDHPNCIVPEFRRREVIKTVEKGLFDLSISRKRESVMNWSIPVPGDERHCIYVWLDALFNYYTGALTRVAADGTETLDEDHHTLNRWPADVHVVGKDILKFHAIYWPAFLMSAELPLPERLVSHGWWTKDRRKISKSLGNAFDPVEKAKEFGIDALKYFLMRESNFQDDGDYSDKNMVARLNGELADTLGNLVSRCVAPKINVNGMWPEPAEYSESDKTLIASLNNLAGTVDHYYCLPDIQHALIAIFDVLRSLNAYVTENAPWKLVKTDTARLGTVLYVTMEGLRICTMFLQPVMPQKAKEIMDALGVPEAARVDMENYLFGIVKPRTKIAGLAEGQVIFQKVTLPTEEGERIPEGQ

All values are in %.
How 0% and 100% were set is not recorded. Most values in the screen are low, and negative values occur.
This is an unselected part of the compounds tested.
A dash means the value is not listed here; it may have been measured.

LdMetRS: 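Methionyl-tRNA synthetase (putative), Leishmania donovani (UniProt E9BF75). Primary screen of methionyl-tRNA synthetase; the read-out is not stated. The test concentration is not given. Values are per cent inhibition. Size under these conditions: about 68,000 compounds, about 24 of them at 50% or above in at least one test.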
Mtb heat-shock: 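Assay on Mycobacterium tuberculosis, filed only as a heat shock assay from Cornell; the read-out is not stated. The concentration is filed as 10 mM, unlikely as a test dose, so the dose is not known. The record gives no direction; compounds that gave an IC50 in retests scored well above the rest, so higher reads as stronger inhibition. About 69,000 compounds were tested under these conditions; 1.4% (about 930) showed 50% or more at least once.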

For COCCCn1ccc(NCc2ccc(NC(C)=O)cc2)n1 the result was LdMetRS: 13.43%; Mtb heat-shock: 12.39%. For Cc1ccsc1-c1nc(CN(C)Cc2cc[nH]n2)c(C)o1 the result was LdMetRS: 2.793%; Mtb heat-shock: -21.42%. With Cc1cc(CNC(=O)NCCOc2ccc(F)c(F)c2)on1 the screen gave LdMetRS: 3.804%; Mtb heat-shock: -3.66%. With Oc1ccc(C2Nc3ccccc3C3=NCCCN32)cc1 (centres undefined) the screen gave LdMetRS: 14.84%; Mtb heat-shock: 1.515%. For CC(C)c1ccc(-c2nonc2N)cc1 the result was LdMetRS: 6.757%; Mtb heat-shock: 6.176%.

CC(C)Nc1ncnc2c1CCN(C(=O)Cc1ccccn1)CC2.O=C(O)C(F)(F)F gave Mtb heat-shock: -20.35%. With COCCN1CCCn2c(nc(Cn3cncn3)cc2=O)C1.O=C(O)C(F)(F)F the screen gave Mtb heat-shock: 17.08%. With CC1(C)CNC(=O)c2nc(C3CCN(C(=O)C4CC4)CC3)[nH]c2C1 the screen gave LdMetRS: 20.49%; Mtb heat-shock: -4.172%. For CCN1CCOCC2(CCCN(C(=O)c3ccccc3F)C2)C1 (centres undefined) the result was LdMetRS: -2.244%. CS(=O)(=O)N1CCC(c2nnc(Cn3ccnc3)n2C2CC2)CC1 read LdMetRS: 12.21%; Mtb heat-shock: 7.363%.

For Cc1cc(NC(=O)N2CCCC2C(=O)NC2CC2)c2ncccc2c1 (centres undefined) the result was LdMetRS: 13.17%; Mtb heat-shock: -10.9%. With O=C1CC2(CCCNC2)C(=O)N1Cc1ccc(F)cc1 (centres undefined) the screen gave LdMetRS: 7.744%. Result for CC(C)C1CN(C(=O)c2ccc(N3CCCC3)nc2)CCS1 (centres undefined) was LdMetRS: 13.39%; Mtb heat-shock: -11.55%. Cc1cccc(CN2CCCC3(CCN(CC4CCCO4)CC3)C2)n1.O=C(O)C(F)(F)F.O=C(O)C(F)(F)F (centres undefined) read Mtb heat-shock: -0.3553%. With Cn1cc(Cl)c(CN2CCCC(Cn3cc(CO)nn3)C2)n1 (centres undefined) the screen gave LdMetRS: 9.89%; Mtb heat-shock: -3.473%.

Result for CCS(=O)(=O)NCC(=O)N1CC2(CCCC2)c2c(F)cccc21 was LdMetRS: 12.32%; Mtb heat-shock: 17.06%. For O=C(c1cnc(-c2ncccn2)s1)N1CCCC(n2cccn2)C1 (centres undefined) the result was LdMetRS: 21.08%; Mtb heat-shock: -8.073%. For Cn1cc(C(=O)NCc2cn3c(n2)CN(CC2CCOCC2)CC3)cn1.O=C(O)C(F)(F)F the result was Mtb heat-shock: -0.5076%. O=C(NCc1cc2n(n1)CCCNC2)C1(c2ccc(Cl)cc2)CCC1 read LdMetRS: 9.946%; Mtb heat-shock: -26.04%. With c1ccc(Cn2cncn2)c(CNCC2CNc3ccnn3C2)c1 (centres undefined) the screen gave LdMetRS: 14.98%; Mtb heat-shock: -3.344%.

For O=C(O)C(F)(F)F.O=C(O)C(F)(F)F.[H][C@]12CCN(C(=O)Cc3ccc(C)cc3)C[C@@]1([H])OCCN(CCN(C)C)C2 the result was Mtb heat-shock: -3.479%. CCN1C[C@H]2C3(CCN(S(=O)(=O)CC)CC3)CC[C@@]2(C(=O)N(C)C)C1 gave LdMetRS: 7.317%. CCN(CC)CCn1cc(NC2CCSCC2)cn1 gave LdMetRS: 5.744%; Mtb heat-shock: -10.83%. For NCc1csc(CCc2ccccc2)n1 the result was LdMetRS: 10.29%; Mtb heat-shock: 1.601%.

For reference, 3 entries once more:

| Compound | LdMetRS | Mtb heat-shock |
|---|---|---|
| `CCN(CC)CCn1cc(NC2CCSCC2)cn1` | 5.744 | -10.83 |
| `NCc1csc(CCc2ccccc2)n1` | 10.29 | 1.601 |
| `Cc1cccc(CN2CCCC3(CCN(CC4CCCO4)CC3)C2)n1.O=C(O)C(F)(F)F.O=C(O)C(F)(F)F` (centres undefined) | - | -0.3553 |